{
  "source": "patent US20140296265A1",
  "about": "“Method of Treating Lymphoma Using Pyridopyrimidinone Inhibitors of PI3K/mTOR” (Sanofi, priority 2011, published 2014)",
  "assay": "Phase 1 dose-expansion lymphoma cohort: safety and tolerability",
  "type": "in vivo, human",
  "conditions": "sixteen subjects",
  "description": "The following phase 1 study was designed to evaluate the safety and pharmacokinetics of Compound A administered as a continuous daily dosing regimen in an expansion cohort of subjects with relapsed or refractory lymphoma.\nThis was a Phase 1, open-label, non-randomized trial of Compound A given orally as a single agent in subjects with lymphoma. The maximum tolerated dose expansion cohort planned enrollment was at least 15 subjects.\nThe primary objective was to determine the safety and tolerability of Compound A administered orally, twice daily, as a continuous daily dosing regimen to subjects with relapsed or refractory lymphoma.\nThe key eligibility include the following: • Histologically confirmed diagnosis of relapsed or refractory lymphoma • Measureable disease • Adequate bone marrow function defined as: • ANC≧1000/mm3 (chronic lymphocytic leukemia with ANC≧500/mm3) • Platelets≧30,000/mm3 • Hemoglobin≧8 g/dL • Availability of archival or fresh tumor tissue • No prior therapy with a selective PI3K inhibitor • Written informed consent.",
  "data": [
    {"smiles": "CCn1c(=O)c(-c2ccn[nH]2)cc2c(C)nc(N)nc21", "note": "[Compound A, 2-amino-8-ethyl-4-methyl-6-(1H-pyrazol-5-yl)pyrido[2,3-d]pyrimidin-7(8H)-one]", "values": [
      {"measurement": "Median duration of therapy, weeks (range)", "value": "9 (1-66) weeks"}
    ]}
  ]
}
